These results are taken from paper PMC7862700.

The list shows a part of the results, in another mix than the full data. At the low end of the ranking the order means little.

The target in this assay is SPI1 (UniProt P17947). Briefly: DAPPL (digital affinity profiling via proximity ligation, sequencing). Particulars: 10 mM Tris-HCl pH 7.5, 50 mM NaCl, 1 mM DTT, 4% glycerol, room temperature, 30 min; GST-TFs on glutathione beads, 16-mer random dsDNA library, 0.1% …; high values mean tight binding; double strand, one strand shown; scale: fold enrichment (6-mer frequency, TF over GST control).
For ACCGCG, the binding signal came to 0.872.

AACAGT gave a binding signal of 0.643.

For the sequence GGGCGT, the binding signal turned out to be 0.506.

Sequence TCAGGA yielded a binding signal of 0.851.

Turning to TGAGTT, the binding signal turned out to be 0.414.

As for AAGTCG, the binding signal worked out at 0.543.

AGGTAC returned a binding signal of 0.915.

For the sequence ACAGGT, the binding signal is 0.741.

For GGACGA, the binding signal was 0.605.

For the sequence CGCCGT, the binding signal came out at 0.933.

As for ACGGAC, the binding signal was 0.788.

ACGGTC: the binding signal was found to be 0.721.

Sequence ACAGAC yielded a binding signal of 0.793.

The sequence GACATA returned a binding signal of 0.863.

With GTGCAG, the binding signal was determined as 0.778.

The sequence GTGTGG displayed a binding signal of 0.766.

GAAGAG: the binding signal worked out at 0.924.

ACCATG came in with a binding signal of 0.864.

The sequence AGACAG returned a binding signal of 0.524.

Consider GCGGTT, for which the binding signal was determined as 0.812.

CGTAGG: the binding signal came out at 0.655.

As to GACCCG, the binding signal is 0.73.

With TAGTGA, the binding signal was determined as 0.557.

The sequence GGTCAG returned a binding signal of 0.559.

As for ACGGAG, the binding signal was determined as 0.355.

AGAGCA: the binding signal was determined as 0.753.

In the case of ACAGTG, the binding signal amounted to 0.499.

As to CAAAGG, the binding signal turned out to be 0.816.

Sequence AGACCA displayed a binding signal of 0.595.

In turn, AGAGCC showed a binding signal of 0.64.

The sequence TGTGTG displayed a binding signal of 0.876.

AGGGTC registered a binding signal of 0.867.

GTGTCG showed a binding signal of 0.609.

Regarding ACCAGC, the binding signal is 0.858.

GCCCAG registered a binding signal of 0.67.

Sequence AGGAGG displayed a binding signal of 0.221.

Consider GATAGA, for which the binding signal was 0.834.

As to CAAGAG, the binding signal amounted to 0.727.

GGCGCC showed a binding signal of 0.655.
